Data as given in the supplement of paper PMC5355238.
Where a name gives a salt, the structure may show the parent alone. The list shows a part of the results. Most entries show no effect beyond the scatter of the controls.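 Reh, a human leukemia cell line, is read out by flow cytometry as the median γH2AX antibody signal in S-phase cells; the score counts standard deviations from the median difference of each paired plate set. Scores above 2.5 were candidate hits; scores below -2 mark compounds lowering MK1775-induced damage.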

Each compound was assayed on Reh (assay: Z' of S-phase gammaH2AX difference (drug + MK1775 minus drug alone) (Z-score); higher = stronger synergistic S-phase DNA damage with MK1775). Details: MK1775 concentration 400 nM; first compound 10 µM; 4 h.

Compound | Z' of S-phase gammaH2AX difference (Z-score)
CC(C)Cc1ccc([C@H](C)C(=O)O)cc1 [S(+)-Ibuprofen] + C=CCn1c(=O)c2cnc(Nc3ccc(N4CCN(C)CC4)cc3)nc2n1-c1cccc(C(C)(C)O)n1 [MK1775] | inactive: 1.13
O=C(O)Cc1ccccc1Nc1c(Cl)cccc1Cl [Diclofenac sodium] + C=CCn1c(=O)c2cnc(Nc3ccc(N4CCN(C)CC4)cc3)nc2n1-c1cccc(C(C)(C)O)n1 [MK1775] | inactive: -0.109
COC(=O)C1=C(C)NC(C)=C(C(=O)OC)C1c1ccccc1[N+](=O)[O-] [Nifedipine] + C=CCn1c(=O)c2cnc(Nc3ccc(N4CCN(C)CC4)cc3)nc2n1-c1cccc(C(C)(C)O)n1 [MK1775] | inactive: -0.0485
CNC(=O)[C@H]1O[C@@H](n2cnc3c(NCc4ccc(N)cc4)ncnc32)[C@H](O)[C@@H]1O + C=CCn1c(=O)c2cnc(Nc3ccc(N4CCN(C)CC4)cc3)nc2n1-c1cccc(C(C)(C)O)n1 [MK1775] | inactive: -0.548
COc1cc2c(cc1O)CC[C@@H]1[C@@H]2CC[C@]2(C)[C@@H](O)CC[C@@H]12 [2-Methoxyestradiol] + C=CCn1c(=O)c2cnc(Nc3ccc(N4CCN(C)CC4)cc3)nc2n1-c1cccc(C(C)(C)O)n1 [MK1775] | inactive: 0.0407
COc1cc2c(cc1O)CC[C@@H]1[C@@H]2CC[C@]2(C)[C@@H](O)CC[C@@H]12 [2-methoxyestradiol] + C=CCn1c(=O)c2cnc(Nc3ccc(N4CCN(C)CC4)cc3)nc2n1-c1cccc(C(C)(C)O)n1 [MK1775] | inactive: -0.893
CN(C)CCCN1c2ccccc2CCc2ccc(Cl)cc21 [Clomipramine hydrochloride] + C=CCn1c(=O)c2cnc(Nc3ccc(N4CCN(C)CC4)cc3)nc2n1-c1cccc(C(C)(C)O)n1 [MK1775] | inactive: -0.351
CC(C)[C@H](C(=O)Nc1ccc(C(=O)NO)cc1)c1ccccc1 + C=CCn1c(=O)c2cnc(Nc3ccc(N4CCN(C)CC4)cc3)nc2n1-c1cccc(C(C)(C)O)n1 [MK1775] | inactive: -0.125
NC(=O)c1ccc2nc(-c3ccc(Oc4ccc(Cl)cc4)cc3)[nH]c2c1 + C=CCn1c(=O)c2cnc(Nc3ccc(N4CCN(C)CC4)cc3)nc2n1-c1cccc(C(C)(C)O)n1 [MK1775] | inactive: 0.088
COc1cc2c(CCNC(C)=O)c[nH]c2cc1O [6-Hydroxymelatonin] + C=CCn1c(=O)c2cnc(Nc3ccc(N4CCN(C)CC4)cc3)nc2n1-c1cccc(C(C)(C)O)n1 [MK1775] | inactive: 0.391

In another format: results already given
Compound,Z' of S-phase gammaH2AX difference (Z-score)
NC(=O)c1ccc2nc(-c3ccc(Oc4ccc(Cl)cc4)cc3)[nH]c2c1 + C=CCn1c(=O)c2cnc(Nc3ccc(N4CCN(C)CC4)cc3)nc2n1-c1cccc(C(C)(C)O)n1 [MK1775],inactive: 0.088
COc1cc2c(CCNC(C)=O)c[nH]c2cc1O [6-Hydroxymelatonin] + C=CCn1c(=O)c2cnc(Nc3ccc(N4CCN(C)CC4)cc3)nc2n1-c1cccc(C(C)(C)O)n1 [MK1775],inactive: 0.391
